Reference: the M2OR odorant receptor database
Where a chain is given by its changes, count along the chain named. The list shows a part of the results, in another mix than the full data. Calls are pooled over several reports, among them a noisy single-well screen. This is one part of the list.

Chains of the proteins cited; added tags and fusions are not shown. A line that says so, or that is headed by a name, gives the form on record, which may keep a tag or linker.
OR2M7, as listed by the source: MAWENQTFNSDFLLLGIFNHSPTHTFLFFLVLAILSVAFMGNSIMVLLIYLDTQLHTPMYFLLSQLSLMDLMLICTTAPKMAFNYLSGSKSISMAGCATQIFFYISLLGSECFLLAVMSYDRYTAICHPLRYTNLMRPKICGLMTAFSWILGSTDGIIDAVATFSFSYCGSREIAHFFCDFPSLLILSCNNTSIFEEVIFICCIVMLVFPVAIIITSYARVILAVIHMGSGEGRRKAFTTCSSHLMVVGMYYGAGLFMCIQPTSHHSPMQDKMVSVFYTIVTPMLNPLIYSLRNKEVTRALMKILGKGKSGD

Columns and labels:
Conditions in all cases: stereoisomer not certain
OR2L3 = system: T1, OR2L3
T1 sequence (whole entry): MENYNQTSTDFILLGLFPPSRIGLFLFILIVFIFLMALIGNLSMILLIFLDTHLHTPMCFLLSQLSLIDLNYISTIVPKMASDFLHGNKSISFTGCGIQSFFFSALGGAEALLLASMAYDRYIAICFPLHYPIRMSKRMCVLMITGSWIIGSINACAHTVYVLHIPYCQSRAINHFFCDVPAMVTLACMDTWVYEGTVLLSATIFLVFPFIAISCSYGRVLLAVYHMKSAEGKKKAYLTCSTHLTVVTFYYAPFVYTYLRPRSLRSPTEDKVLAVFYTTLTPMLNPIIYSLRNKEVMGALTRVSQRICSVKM
Outline: (§1)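 Each entry records the cell line, G-protein, co-transfected protein and tags used. Methods varied with the source, often transient luciferase assays in mammalian cell lines. A receptor–molecule pair is called responsive (active) if the original authors judged its signal statistically different from baseline and non-responsive (inactive) otherwise.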

OR2L5 (Homo sapiens) = biological target: T2, OR2L5 (Homo sapiens) (UniProt Q8NG80)
T2 sequence (whole entry): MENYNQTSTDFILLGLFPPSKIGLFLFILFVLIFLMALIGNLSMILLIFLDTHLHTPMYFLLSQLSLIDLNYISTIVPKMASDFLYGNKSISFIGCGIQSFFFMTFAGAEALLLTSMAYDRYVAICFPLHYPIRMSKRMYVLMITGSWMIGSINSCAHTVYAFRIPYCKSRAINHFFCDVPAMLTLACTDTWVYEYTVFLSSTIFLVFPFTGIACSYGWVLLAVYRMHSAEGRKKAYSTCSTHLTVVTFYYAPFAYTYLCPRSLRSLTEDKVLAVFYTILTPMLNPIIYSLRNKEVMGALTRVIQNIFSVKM
Outline: as §1

OR2L8 = system: T3, OR2L8
T3 sequence (whole entry): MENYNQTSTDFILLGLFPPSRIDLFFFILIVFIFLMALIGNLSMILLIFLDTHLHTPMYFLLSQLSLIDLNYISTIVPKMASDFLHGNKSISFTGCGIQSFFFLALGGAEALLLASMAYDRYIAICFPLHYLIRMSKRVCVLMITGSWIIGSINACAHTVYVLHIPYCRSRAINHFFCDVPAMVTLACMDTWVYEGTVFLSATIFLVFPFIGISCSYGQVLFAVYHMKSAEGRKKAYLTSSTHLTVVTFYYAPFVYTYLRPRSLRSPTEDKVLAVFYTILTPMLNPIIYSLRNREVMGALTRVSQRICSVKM
Outline: as §1

OR2M2 = system: T4, OR2M2
T4 sequence (whole entry): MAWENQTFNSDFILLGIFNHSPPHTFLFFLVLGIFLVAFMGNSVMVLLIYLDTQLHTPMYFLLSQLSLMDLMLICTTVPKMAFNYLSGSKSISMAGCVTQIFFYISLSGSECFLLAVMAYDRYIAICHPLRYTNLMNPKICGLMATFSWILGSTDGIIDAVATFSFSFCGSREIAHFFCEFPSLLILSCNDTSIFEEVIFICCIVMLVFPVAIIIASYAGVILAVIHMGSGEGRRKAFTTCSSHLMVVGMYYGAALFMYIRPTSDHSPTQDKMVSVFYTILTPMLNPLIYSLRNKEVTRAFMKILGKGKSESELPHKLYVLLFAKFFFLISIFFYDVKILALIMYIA
Outline: as §1

OR2M3 (Homo sapiens) = biological target: T5, OR2M3 (Homo sapiens) (UniProt Q8NG83)
T5 sequence (whole entry): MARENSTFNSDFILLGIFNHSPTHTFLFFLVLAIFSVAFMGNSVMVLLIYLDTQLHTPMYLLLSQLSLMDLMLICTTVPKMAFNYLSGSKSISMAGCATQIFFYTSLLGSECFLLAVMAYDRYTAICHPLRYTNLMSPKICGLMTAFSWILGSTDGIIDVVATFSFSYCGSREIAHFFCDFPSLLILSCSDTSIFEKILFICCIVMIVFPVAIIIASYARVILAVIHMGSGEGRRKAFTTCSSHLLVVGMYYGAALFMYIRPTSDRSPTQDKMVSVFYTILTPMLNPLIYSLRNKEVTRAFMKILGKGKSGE
Outline: as §1

OR2M4 (Homo sapiens) = biological target: T6, OR2M4 (Homo sapiens) (UniProt Q96R27)
T6 sequence (whole entry): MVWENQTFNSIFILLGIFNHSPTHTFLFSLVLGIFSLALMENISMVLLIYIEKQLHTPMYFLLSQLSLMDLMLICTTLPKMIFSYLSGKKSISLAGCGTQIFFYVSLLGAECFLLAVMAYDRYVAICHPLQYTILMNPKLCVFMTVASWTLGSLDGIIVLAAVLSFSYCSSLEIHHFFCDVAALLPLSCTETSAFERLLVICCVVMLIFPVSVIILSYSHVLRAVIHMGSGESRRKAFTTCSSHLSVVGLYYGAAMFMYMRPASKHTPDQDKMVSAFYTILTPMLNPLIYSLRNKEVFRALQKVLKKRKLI
Outline: as §1

OR2M7 (Homo sapiens) = biological target: T7, OR2M7 (Homo sapiens) (UniProt Q8NG81)
T7 sequence (whole entry): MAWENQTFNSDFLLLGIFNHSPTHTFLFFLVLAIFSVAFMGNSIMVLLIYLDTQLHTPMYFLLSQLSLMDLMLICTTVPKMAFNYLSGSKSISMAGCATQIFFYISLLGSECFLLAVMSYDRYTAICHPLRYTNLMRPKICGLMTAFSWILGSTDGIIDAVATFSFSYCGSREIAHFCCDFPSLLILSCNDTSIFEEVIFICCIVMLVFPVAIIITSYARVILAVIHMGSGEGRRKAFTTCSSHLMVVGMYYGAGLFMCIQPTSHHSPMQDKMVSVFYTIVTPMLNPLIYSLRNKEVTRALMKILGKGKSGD
Outline: as §1

OR2M7 [1] = system: T8, OR2M7
T8 sequence (whole entry): T7 sequence (whole entry) with F35L, V78A, C178F
Outline: as §1

OR2M7 [2] = system: T9, OR2M7; remark: listed apart in the source
T9 sequence (whole entry): T7 sequence (whole entry) with F35L, V78A, C178F, D191N
Outline: as §1

OR2S1 = system: T10, OR2S1
T10 sequence (whole entry): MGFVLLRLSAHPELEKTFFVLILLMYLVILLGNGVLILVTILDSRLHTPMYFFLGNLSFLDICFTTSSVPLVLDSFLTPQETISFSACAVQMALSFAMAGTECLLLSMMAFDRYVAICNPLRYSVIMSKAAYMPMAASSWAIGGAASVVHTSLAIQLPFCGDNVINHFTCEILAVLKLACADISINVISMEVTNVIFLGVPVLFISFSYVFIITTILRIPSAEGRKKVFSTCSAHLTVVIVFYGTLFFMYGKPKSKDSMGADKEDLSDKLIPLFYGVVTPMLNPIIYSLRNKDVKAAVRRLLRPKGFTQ
Outline: as §1

OR2T10 (Homo sapiens) = biological target: T11, OR2T10 (Homo sapiens) (UniProt Q8NGZ9)
T11 sequence (whole entry): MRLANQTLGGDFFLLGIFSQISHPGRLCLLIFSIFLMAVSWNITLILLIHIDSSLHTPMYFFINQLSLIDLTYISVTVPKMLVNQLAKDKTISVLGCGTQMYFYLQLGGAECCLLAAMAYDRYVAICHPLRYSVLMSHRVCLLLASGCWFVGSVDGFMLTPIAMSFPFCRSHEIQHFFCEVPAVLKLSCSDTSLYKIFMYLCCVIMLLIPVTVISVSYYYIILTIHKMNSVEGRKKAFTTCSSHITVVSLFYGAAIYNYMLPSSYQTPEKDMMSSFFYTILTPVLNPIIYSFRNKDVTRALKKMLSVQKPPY
Outline: as §1

Measured: odorant receptor agonist call

C=CCc1ccc(OC)c(OC)c1
inactive: OR2L3 | OR2L5 (Homo sapiens) | OR2L8 | OR2M2 | OR2M3 (Homo sapiens) | OR2M4 (Homo sapiens) | OR2M7 (Homo sapiens) | OR2M7 [1] | OR2M7 [2] | OR2S1 | OR2T10 (Homo sapiens)

CCCCO
inactive: OR2L3 | OR2L5 (Homo sapiens) | OR2L8 | OR2M2 | OR2M3 (Homo sapiens) | OR2M4 (Homo sapiens) | OR2M7 (Homo sapiens) | OR2M7 [1] | OR2M7 [2] | OR2S1 | OR2T10 (Homo sapiens)

CC1=CCC(C(C)(C)O)CC1 (stereo not drawn)
inactive: OR2L3 | OR2L5 (Homo sapiens) | OR2L8 | OR2M2 | OR2M3 (Homo sapiens) | OR2M4 (Homo sapiens) | OR2M7 (Homo sapiens) | OR2M7 [1] | OR2M7 [2] | OR2S1 | OR2T10 (Homo sapiens)
